Out of some 1,800 compounds screened, fewer than 10 were called active.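 Rule for the calls: active = inhibition of granule release above a set limit; inactive = the rest.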 The list shows a part of the results.
Assay: inhibitors of lytic granule exocytosis, flow cytometry, TALL-104 cells, validation set (AID 651664)
Conditions: TALL-104 LAMP-1 externalization, at 15.2 µM, hits give high values, stimulated with thapsigargin and PMA

inhibition, inactive:
COC(=O)c1ccc(NC(=O)C2CC(=O)N(c3cc(C)ccc3C)C2)cc1 (configuration not stated) -0.6%
CCOc1cccc(-c2cc(=O)[nH][nH]2)c1 1.8%
Cc1cc(C(=O)Nc2nnc(-c3ccccc3)s2)no1 -2.1%
O=c1ccc(Oc2nc(N3CCOCC3)nc(N3CCOCC3)n2)n[nH]1 5.4%
COc1cccc(N2CCN(c3ncnc4c3[nH]c3ccc(F)cc34)CC2C)c1 (configuration not stated) 1.9%
COCCN(C(=O)Cn1nnc2ccccc21)C(C(=O)NC1CCCC1)c1cc(OC)ccc1OC (configuration not stated) 0.7%
OCc1cn(-c2ccccc2)nc1-c1cccnc1 -0.9%
O=C(c1ccco1)N1CCN(C2=NS(=O)(=O)c3ccccc32)CC1 5.5%
O=C(Oc1ccccc1)c1cc2ccccc2o1 -0.7%
Cc1nc(=S)c2ccccc2[nH]1 2%
O=C(CN(c1ccc(Cl)c(Cl)c1)S(=O)(=O)c1ccccc1)N1CCc2ccccc2C1 0.8%
CN(C)CCCN1C(=O)C(=O)/C(=C(/O)c2ccncc2)C1c1cccc(Br)c1 (configuration not stated) 3.3%
CC(=O)c1c(C)n([O-])c2cc(C)ccc2[n+]1=O -0.9%
CC(C)C(=O)Nc1cccc(-c2cn3ccsc3n2)c1 -0.2%
CCC(C#CCN1CCCCC1)(CC)OCCC#N 25.8%
Cc1ccc(Nc2ncnc3sc(C)c(C)c23)cc1C 0.1%
COc1cc2c(cc1OC)C1(Nc3c-2c(Cc2ccccc2)nn3-c2ccccc2)C(=O)Nc2ccccc21 (configuration not stated) -2.5%
CC1(C)CC2(CCO1)N1CC3(C)CN2CC(C)(C1)C3=O (configuration not stated) -4.6%
O=C1c2[nH]nc(-c3ccccc3O)c2C(c2cccc(O)c2)N1Cc1ccco1 (configuration not stated) 1.4%
Cc1ccsc1C(=O)N1CC(=O)Nc2ccccc21 4.8%
NS(=O)(=O)c1ccc(N2N=C(c3ccc(Br)cc3)CC2c2ccc(F)cc2)cc1 (configuration not stated) -3.2%
CCOC(=O)CCc1c(C)c2ccc(OCc3cc([N+](=O)[O-])ccc3OC)cc2oc1=O -0.4%
CCCc1nc(NCc2ccccn2)c2nnn(Cc3ccccc3F)c2n1 -0.5%
Cn1nc(-c2ccccc2)c(CSc2ccccc2Cl)c1Cl 2.7%
Cc1cc2nc(-c3ccc(NC(=O)c4cccnc4)cc3)oc2cc1C -4.6%
O=C(Nc1ccccc1-c1nnn(CC(=O)N2CCc3ccccc3C2)n1)C1CCC1 -2.2%
O=C(/C=C/c1ccc([N+](=O)[O-])cc1)NCC1CCCO1 (configuration not stated) -0.8%
CCC(C)NC(=O)CSc1nnc(-c2cc(-c3cccs3)nc3ccccc23)o1 (configuration not stated) -1.3%
CCSC1(SCC)N=C(N)C2(C#N)C(c3ccccc3)NC(C)=CC12C#N (configuration not stated) 2.2%
C=CCn1c(COc2ccc(CC)cc2)nnc1SCC(=O)NC1CCS(=O)(=O)C1 (configuration not stated) 2.5%
Cc1nc(-c2cccc(S(=O)(=O)N3CC(C)CC(C)C3)c2)cs1 (configuration not stated) -2.8%
Cc1ccc(CC2S/C(=N/c3ccccn3)NC2=O)cc1 (configuration not stated) -3.1%
Cc1ccc(CN2C(=O)CCC2C(=O)NCCN2CCOCC2)cc1 (configuration not stated) 0.4%
CCOC(=O)C1=C(C)NC(=O)NC1c1ccc(OCC(N)=O)cc1 (configuration not stated) -1.2%
CC1(C)Cc2c(c(-c3ccco3)nc3n[nH]c(N)c23)CO1 0.7%
CCCn1c2c(c(O)c(C(=O)Nc3ccccc3)c1=O)CCCC2 1.8%
COC(=O)C(C#N)C(=C1C(=O)CC(C)(C)CC1=O)c1ccc(O)cc1 (configuration not stated) -2.7%
Cc1csc(SCCn2c(N3CCN(c4ccccc4)CC3)nc3c2c(=O)[nH]c(=O)n3C)n1 0%
CCOC(=O)C1CCN(C(c2ccccn2)c2c(C)[nH]c3ccccc23)CC1 (configuration not stated) -1.2%
CCOC(=O)C1=C(C)N(C2CCCCC2)C(=O)C1 0.6%
Cc1ccc(C2=[N+]([O-])C3(CCCCC/C3=N\NC(N)=O)N(O)C2(C)C)o1 (configuration not stated) 4.6%
Cc1cc(C)nc(NS(=O)(=O)c2ccc(NC(=O)c3ccc4c(c3)OCO4)cc2)n1 -2.2%
COCCNC(=O)C(C#N)c1nc2ccccc2nc1N1CCCCCC1 (configuration not stated) -1.4%
COc1ccc(C2C3=C(CCCC3=O)Nc3nc(C(F)(F)F)nn32)cc1OC (configuration not stated) 1.7%
COc1ccc(NC(=O)CCC(=O)c2ccc(-c3ccccc3)cc2)cc1 1.8%
COc1ccc(-n2c(C)c([N+](=O)[O-])c3ccc(O)c(CN(C)C)c32)cc1 2.6%
Cc1onc(-c2c(Cl)cccc2Cl)c1C(=O)N1CCc2ccccc2C1 -0.2%
Cc1ccc(NC(=O)Cn2cncc2-c2ccc([N+](=O)[O-])cc2)cc1C -1.3%
COCCNC(=O)c1c[nH]c2ccc(S(=O)(=O)N3CCC4(CC3)OCCO4)cc2c1=O 0.5%
CCOC(=O)c1[nH]c2ccccc2c1N=CN(C)C 0.3%
CCOc1ccc(C(=O)OCC(=O)c2c(N)n(C)c(=O)n(C)c2=O)cc1OCC -1.7%
COCCNC(=O)C(=O)NCCN1CCOCC1 1.7%
CN1CCN(C(=O)c2ccc3c(c2)NC(=O)C(N2CCOCC2)S3)CC1 (configuration not stated) 3.1%
O=c1[nH]ncc2c3ccccc3n(Cc3ccc(F)cc3)c12 0.4%
COC(=O)c1ccc2[nH]c(C)cc(=O)c2c1 1.4%
COc1cccc(OC)c1C(=O)NC(=S)N1CCN(c2ccc(C(F)(F)F)cc2[N+](=O)[O-])CC1 1.5%
Cn1c(=O)c2c(-c3ccccc3)n(N3CCOCC3)cc2n(C)c1=O 2.9%
Nc1ncnc2nc(SCc3ccc(Cl)cc3Cl)[nH]c12 6.3%
CCN(CC)CCOC(=O)c1cccc(OC)c1 0.2%
CC(C)OC(=O)CC12CN3CC(CC(=O)OC(C)C)(CN(C1)C(=O)c1ccccc1C3=O)C2=O -2.2%
COc1ccc(CNC(=O)C(C#N)c2nc3ccccc3nc2N2CCCC2)cc1 (configuration not stated) -0.5%
O=C(CN1C(=O)CCS(=O)(=O)c2ccccc21)Nc1cccc(Cl)c1 -1.2%
Cc1ccc(C(=O)OCCN2CCN(c3ncc(C(F)(F)F)cc3Cl)CC2)cc1 1.6%
CC(C)C1Cc2c(sc3c2c(=O)n(Cc2ccccc2)c2nncn32)CO1 (configuration not stated) -1.4%
COC(=O)C1=C(N)c2c(F)cccc2C1(C#N)c1ccccc1 (configuration not stated) 0.3%
COC(=O)CSc1nc(SCc2ccc(C)cc2)nc2c1CCCC2 0.1%
CNc1nc(Oc2ccc(=O)n(C)n2)nc(N2CCOCC2)n1 -0.6%
Cc1ccc(Nc2cc(=O)n(C3CCCCC3)c(=O)[nH]2)cc1C 2.8%
COc1ccccc1-c1nc(C#N)c(N2CCN(C(c3ccccc3)c3ccccc3)CC2)o1 2.6%
Cc1ccc(S(=O)(=O)c2c(N)n(CCCO)c3nc4ccccc4nc23)cc1 -1.5%
O=C(OCC(=O)N1CCCC1)c1ccco1 0.9%
Cc1nn2c(N)c(C#N)cnc2c1-c1ccc(Cl)cc1 2.5%
O=C(Nc1ccc(Cl)c(Cl)c1)C1=Cc2ccccc2OC1 5.1%
Cc1ccccc1C1=NC(c2ccc(F)cc2F)ON1 (configuration not stated) 1.2%
C=CCn1c(-c2cccs2)nc2nc3ccccc3nc21 -2.3%
CSCC[C@H](NC(=O)NCCC1=CCCCC1)C(=O)O 1.1%
COC(=O)CSc1ncnc2c1cnn2Cc1ccccc1 -0.5%
O=C(O)CCc1c(C(=O)O)[nH]c2ccccc12 1.9%
COc1ccc(C(=O)N2CCCC2)cc1S(=O)(=O)N1CCC(C)CC1 2.4%
CC(C)COc1nc2ccccc2c(=O)n1OCC(=O)O -1.8%
COCc1ccc(O)c2ncccc12 -1.7%
CNc1nc(C)c(C(=O)c2ccc(Cl)cc2)s1 1.3%
Cc1ccc(S(=O)(=O)c2nc(S(C)(=O)=O)sc2NCC2CCCO2)cc1 (configuration not stated) -1.4%
N#Cc1c(-c2ccccc2)nc(-c2ccccc2)nc1N1CCOCC1 -0.6%
O=C(CSc1nnc(-c2ccccc2Cl)o1)Oc1ccc(Br)cc1 -2.2%
O=C(NCC(c1cccnc1)N1CCN(c2ccccc2F)CC1)C1CCCCC1 (configuration not stated) 0.3%
CCN(CC)Cc1c(O)ccc2c(=O)c(-c3ccc4c(c3)OCCO4)coc12 2.4%
Cc1cnn(-c2cc(N/N=C/c3ccccc3Cl)ncn2)c1 4.7%
COc1ccccc1NC(=O)N(Cc1ccccc1)c1ccccn1 -0.2%
Clc1ccc(OCCSc2nnnn2C2CCCCC2)cc1 1%
CCCCN(Cc1cc2ccccc2[nH]c1=O)C(=O)c1ccccn1 0.4%
O=C1N=C(N2CCCC2)S/C1=C\c1cccc(Br)c1 0.5%
CC(=O)N1CCc2cc(NS(=O)(=O)c3cccs3)ccc21 -1.2%
Cc1cc(=O)oc2c(CN3CCCCC3)c(O)c(Cl)cc12 -0.5%
CCc1sc2nc(SCC(=O)Nc3cc(C)on3)n(-c3cccc(OC)c3)c(=O)c2c1C -1.9%
COc1ccc(NC(=O)c2ccccc2Cl)cc1NC(=O)CN1CCOCC1 3.1%
COc1ccc(C2=CC(c3sccc3C)n3nnnc3N2)cc1 (configuration not stated) 1.8%

Two records drawn at random from those above:
inhibition, inactive:
Cc1nn2c(N)c(C#N)cnc2c1-c1ccc(Cl)cc1 2.5%
CNc1nc(C)c(C(=O)c2ccc(Cl)cc2)s1 1.3%

Among those listed so far, these contain a nitro group on carbon:
inhibition, inactive:
CCOC(=O)CCc1c(C)c2ccc(OCc3cc([N+](=O)[O-])ccc3OC)cc2oc1=O -0.4%
O=C(/C=C/c1ccc([N+](=O)[O-])cc1)NCC1CCCO1 (configuration not stated) -0.8%
COc1ccc(-n2c(C)c([N+](=O)[O-])c3ccc(O)c(CN(C)C)c32)cc1 2.6%
Cc1ccc(NC(=O)Cn2cncc2-c2ccc([N+](=O)[O-])cc2)cc1C -1.3%
COc1cccc(OC)c1C(=O)NC(=S)N1CCN(c2ccc(C(F)(F)F)cc2[N+](=O)[O-])CC1 1.5%

— PubChem BioAssay AID651664 (NMMLSC, 2012)
